{"sequences": {"note": "By UniProt entry, the sequences of proteins in these tests, tags left out. Where a name states a change or a piece, a line headed by the entry shows the natural chain unless it says otherwise.", "UniProt I6Y4C7": "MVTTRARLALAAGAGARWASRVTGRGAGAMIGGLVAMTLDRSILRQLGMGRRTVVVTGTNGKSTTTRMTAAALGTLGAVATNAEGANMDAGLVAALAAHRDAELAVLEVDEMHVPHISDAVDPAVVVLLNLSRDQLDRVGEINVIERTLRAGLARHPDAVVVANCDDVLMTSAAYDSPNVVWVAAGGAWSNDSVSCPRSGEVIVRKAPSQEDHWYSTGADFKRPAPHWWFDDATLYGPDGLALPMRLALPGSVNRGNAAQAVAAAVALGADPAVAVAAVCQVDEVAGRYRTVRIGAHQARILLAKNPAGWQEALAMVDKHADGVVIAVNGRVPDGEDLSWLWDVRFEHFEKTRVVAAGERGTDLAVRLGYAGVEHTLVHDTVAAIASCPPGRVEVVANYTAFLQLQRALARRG", "UniProt P9WI81": "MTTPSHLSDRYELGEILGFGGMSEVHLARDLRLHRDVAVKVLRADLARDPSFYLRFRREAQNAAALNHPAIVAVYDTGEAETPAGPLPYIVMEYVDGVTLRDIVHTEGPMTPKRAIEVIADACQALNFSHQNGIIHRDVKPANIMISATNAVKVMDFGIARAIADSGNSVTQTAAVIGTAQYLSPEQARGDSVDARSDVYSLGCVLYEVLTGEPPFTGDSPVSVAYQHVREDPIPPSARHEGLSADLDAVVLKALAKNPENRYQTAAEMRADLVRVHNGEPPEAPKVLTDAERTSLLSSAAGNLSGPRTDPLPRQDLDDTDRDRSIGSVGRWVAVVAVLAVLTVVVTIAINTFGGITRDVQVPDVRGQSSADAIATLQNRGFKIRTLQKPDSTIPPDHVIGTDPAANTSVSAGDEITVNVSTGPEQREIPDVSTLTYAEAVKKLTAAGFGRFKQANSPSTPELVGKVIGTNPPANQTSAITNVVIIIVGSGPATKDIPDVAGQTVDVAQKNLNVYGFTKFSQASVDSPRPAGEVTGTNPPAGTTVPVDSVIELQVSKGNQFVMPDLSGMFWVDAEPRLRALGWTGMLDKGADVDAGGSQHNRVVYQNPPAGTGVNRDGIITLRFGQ"}, "source": "paper PMC8210147", "about": "“Characterization of the MurT/GatD complex in Mycobacterium tuberculosis towards validating a novel anti-tubercular drug target” (JAC-Antimicrobial Resistance, 2021)", "molecules": {"B1": {"name": "PknA (M-PFC prey fusion) (enzyme, UniProt P9WI83 1-431)", "chain": "MSPRVGVTLSGRYRLQRLIATGGMGQVWEAVDNRLGRRVAVKVLKSEFSSDPEFIERFRAEARTTAMLNHPGIASVHDYGESQMNGEGRTAYLVMELVNGEPLNSVLKRTGRLSLRHALDMLEQTGRALQIAHAAGLVHRDVKPGNILITPTGQVKITDFGIAKAVDAAPVTQTGMVMGTAQYIAPEQALGHDASPASDVYSLGVVGYEAVSGKRPFAGDGALTVAMKHIKEPPPPLPPDLPPNVRELIEITLVKNPAMRYRSGGPFADAVAAVRAGRRPPRPSQTPPPGRAAPAAIPSGTTARVAANSAGRTAASRRSRPATGGHRPPRRTFSSGQRALLWAAGVLGALAIIIAVLLVIKAPGDNSPQQAPTPTVTTTGNPPASNTGGTDASPRLNWTERGETRHSGLQSWVVPPTPHSRASLARYEIAQ"}, "B2": {"name": "MurC (M-PFC fusion) (enzyme, UniProt P9WJL7 1-494)", "chain": "MSTEQLPPDLRRVHMVGIGGAGMSGIARILLDRGGLVSGSDAKESRGVHALRARGALIRIGHDASSLDLLPGGATAVVTTHAAIPKTNPELVEARRRGIPVVLRPAVLAKLMAGRTTLMVTGTHGKTTTTSMLIVALQHCGLDPSFAVGGELGEAGTNAHHGSGDCFVAEADESDGSLLQYTPHVAVITNIESDHLDFYGSVEAYVAVFDSFVERIVPGGALVVCTDDPGGAALAQRATELGIRVLRYGSVPGETMAATLVSWQQQGVGAVAHIRLASELATAQGPRVMRLSVPGRHMALNALGALLAAVQIGAPADEVLDGLAGFEGVRRRFELVGTCGVGKASVRVFDDYAHHPTEISATLAAARMVLEQGDGGRCMVVFQPHLYSRTKAFAAEFGRALNAADEVFVLDVYGAREQPLAGVSGASVAEHVTVPMRYVPDFSAVAQQVAAAASPGDVIVTMGAGDVTLLGPEILTALRVRANRSAPGRPGVLG"}}, "target": "Rv3712 (M-PFC bait fusion) (M. tuberculosis) (UniProt I6Y4C7)", "test": "split reporter", "note": "Results are given in words; binding and its absence hold for the method and conditions named. Binding seen in cells or lysates may run through a third protein. A result given as binding can be weak or reduced; the word gives no strength. Where a sequence is shown, tags or fusion partners need not be part of it.", "data": [{"molecule": "PknB (M-PFC prey fusion) (from UniProt P9WI81 1-626) (enzyme)", "values": [{"measurement": "binding", "value": "binds"}]}, {"molecule": "B1", "values": [{"measurement": "binding", "value": "binds"}]}, {"molecule": "B2", "values": [{"measurement": "binding", "value": "no binding"}]}]}
